Laboratory results as given in patent US10639305B2, “Liquid preparation comprising pimobendan” (Boehringer Ingelheim Vetmedica GmbH, priority 2006, dated 2020).
At least one read-out could not be matched to a standard name with certainty.

Experiment: Saturated solubility of pimobendan at 10 to 40% (w/v) HPβCD at pH 3, 5 and 7
Format: physicochemical
Settings: pH 3, 5, 7, 25° C.
Experimental: Kleptose® HP (Roquette, France) was used as HPβCD of pharmaceutical grade. […] The solutions were buffered with a sodium phosphate solution. The sample solutions were prepared using the following method: • a) Approximately 3 ml of the solution under test was placed in a 7 ml glass vial with a magnetic stirring bar. • b) The pH was adjusted with hydrochloric acid • c) An excess of pimobendan was added.

In the case of `COc1ccc(-c2nc3ccc(C4=NNC(=O)CC4C)cc3[nH]2)cc1` (stereo not shown) [pimobendan, 4,5-dihydro-6-[2-(4-methoxyphenyl)-1H-benzimidazol-5-yl]-5-methyl-3(2H)-pyridazinone], the “relationship between increase of HPβCD concentration (by mass) and increase in saturated solubility” value is reported as “linear at pH 3, but non-linear at pH 5 and pH 7”.
